Our source for the binding values is PMC8970474.

Chains of the proteins cited; added tags and fusions are not shown. Residues count along the entry.
UniProt P31016, residues 403-724: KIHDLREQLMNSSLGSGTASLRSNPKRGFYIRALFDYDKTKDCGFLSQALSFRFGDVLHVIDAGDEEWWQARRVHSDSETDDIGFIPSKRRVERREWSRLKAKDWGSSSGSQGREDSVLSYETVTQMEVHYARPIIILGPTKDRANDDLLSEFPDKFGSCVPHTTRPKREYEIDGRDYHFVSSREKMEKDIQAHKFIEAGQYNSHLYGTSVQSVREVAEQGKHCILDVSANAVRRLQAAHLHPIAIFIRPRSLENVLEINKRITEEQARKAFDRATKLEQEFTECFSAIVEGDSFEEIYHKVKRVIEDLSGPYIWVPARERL
UniProt P62813, residues 28-455: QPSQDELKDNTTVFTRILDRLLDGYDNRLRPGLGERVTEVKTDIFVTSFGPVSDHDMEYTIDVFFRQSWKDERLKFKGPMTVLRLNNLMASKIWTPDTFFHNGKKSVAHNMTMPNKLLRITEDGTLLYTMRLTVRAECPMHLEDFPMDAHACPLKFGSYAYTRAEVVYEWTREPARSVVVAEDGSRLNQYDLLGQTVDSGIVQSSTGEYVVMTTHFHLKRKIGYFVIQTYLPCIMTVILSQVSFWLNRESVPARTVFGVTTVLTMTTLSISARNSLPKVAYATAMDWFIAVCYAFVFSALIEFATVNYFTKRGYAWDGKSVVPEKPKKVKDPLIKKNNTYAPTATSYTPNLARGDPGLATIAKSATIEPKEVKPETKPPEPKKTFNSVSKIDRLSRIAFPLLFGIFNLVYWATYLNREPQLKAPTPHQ
UniProt P23576, residues 29-451: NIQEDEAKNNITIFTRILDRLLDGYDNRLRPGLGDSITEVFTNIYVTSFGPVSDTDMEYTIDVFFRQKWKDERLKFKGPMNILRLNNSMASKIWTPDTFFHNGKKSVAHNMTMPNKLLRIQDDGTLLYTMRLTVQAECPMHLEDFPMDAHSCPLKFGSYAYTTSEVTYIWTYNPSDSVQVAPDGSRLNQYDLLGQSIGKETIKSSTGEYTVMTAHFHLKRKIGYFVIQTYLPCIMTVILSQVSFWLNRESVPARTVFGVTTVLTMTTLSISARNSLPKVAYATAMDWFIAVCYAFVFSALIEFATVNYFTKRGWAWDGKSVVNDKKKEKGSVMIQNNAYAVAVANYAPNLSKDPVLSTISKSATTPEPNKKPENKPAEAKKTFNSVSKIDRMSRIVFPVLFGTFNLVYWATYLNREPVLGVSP
UniProt P63079, residues 26-473: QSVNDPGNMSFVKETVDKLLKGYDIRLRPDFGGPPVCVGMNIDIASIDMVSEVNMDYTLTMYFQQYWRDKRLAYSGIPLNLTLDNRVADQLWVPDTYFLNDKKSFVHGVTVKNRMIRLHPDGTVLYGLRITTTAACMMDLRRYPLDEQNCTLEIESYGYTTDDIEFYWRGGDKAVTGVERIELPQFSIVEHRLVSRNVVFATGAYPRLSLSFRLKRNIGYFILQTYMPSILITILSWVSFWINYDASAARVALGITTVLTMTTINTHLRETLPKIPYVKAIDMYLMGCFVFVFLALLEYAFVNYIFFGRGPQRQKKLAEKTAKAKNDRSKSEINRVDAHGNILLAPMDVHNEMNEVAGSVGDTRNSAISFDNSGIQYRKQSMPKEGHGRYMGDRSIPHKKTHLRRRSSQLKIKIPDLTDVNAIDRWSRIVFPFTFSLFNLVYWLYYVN
UniProt O60331: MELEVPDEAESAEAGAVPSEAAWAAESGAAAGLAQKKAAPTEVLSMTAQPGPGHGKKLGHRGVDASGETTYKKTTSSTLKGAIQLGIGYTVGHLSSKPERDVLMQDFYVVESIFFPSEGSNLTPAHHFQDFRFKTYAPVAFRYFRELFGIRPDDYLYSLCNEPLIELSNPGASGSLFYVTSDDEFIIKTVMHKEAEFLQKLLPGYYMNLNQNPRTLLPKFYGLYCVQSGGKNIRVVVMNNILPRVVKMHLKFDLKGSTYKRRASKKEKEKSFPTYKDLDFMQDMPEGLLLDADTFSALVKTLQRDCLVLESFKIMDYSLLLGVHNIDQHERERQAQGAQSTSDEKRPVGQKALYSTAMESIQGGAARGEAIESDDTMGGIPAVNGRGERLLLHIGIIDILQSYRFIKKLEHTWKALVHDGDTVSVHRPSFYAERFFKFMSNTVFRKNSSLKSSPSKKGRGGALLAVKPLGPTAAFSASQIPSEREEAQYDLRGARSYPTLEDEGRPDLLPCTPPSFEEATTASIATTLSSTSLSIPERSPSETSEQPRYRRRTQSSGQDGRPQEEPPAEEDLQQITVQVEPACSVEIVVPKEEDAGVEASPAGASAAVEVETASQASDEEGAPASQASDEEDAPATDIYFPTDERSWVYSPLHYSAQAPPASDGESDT

The target in test [1] is T1, EGFP-MPP2 (mouse) (UniProt Q9WV34).
T1 sequence: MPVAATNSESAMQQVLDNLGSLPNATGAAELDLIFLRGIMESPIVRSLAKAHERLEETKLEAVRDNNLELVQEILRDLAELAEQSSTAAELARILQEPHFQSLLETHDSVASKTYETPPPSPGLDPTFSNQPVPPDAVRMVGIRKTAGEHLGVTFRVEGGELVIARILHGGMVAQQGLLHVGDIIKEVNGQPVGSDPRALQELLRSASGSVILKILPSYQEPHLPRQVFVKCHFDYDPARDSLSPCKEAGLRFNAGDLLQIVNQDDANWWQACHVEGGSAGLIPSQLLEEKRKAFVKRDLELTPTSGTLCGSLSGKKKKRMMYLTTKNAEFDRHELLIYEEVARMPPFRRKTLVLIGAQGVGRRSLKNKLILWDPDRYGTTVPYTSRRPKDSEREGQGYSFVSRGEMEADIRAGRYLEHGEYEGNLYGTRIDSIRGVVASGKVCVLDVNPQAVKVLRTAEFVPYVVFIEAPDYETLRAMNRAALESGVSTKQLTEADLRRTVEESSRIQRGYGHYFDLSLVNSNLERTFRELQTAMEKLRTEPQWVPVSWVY
As to the kind of experiment: co-IP; co-expression in HEK293T cells; lysis in 50 mM Tris pH 7.4, 100 mM NaCl, 1 mM EDTA, 1% Triton-X or 0.1% NP-40; precipitated with αGFP or normal mouse IgG and protein-G-agarose, 4°C; western blot. For orientation: In western blotting, separated proteins are transferred to a membrane and probed.

Test [2] deals with T2, GST-MPP2-SH3GK (mouse) (UniProt Q9WV34).
T2 sequence: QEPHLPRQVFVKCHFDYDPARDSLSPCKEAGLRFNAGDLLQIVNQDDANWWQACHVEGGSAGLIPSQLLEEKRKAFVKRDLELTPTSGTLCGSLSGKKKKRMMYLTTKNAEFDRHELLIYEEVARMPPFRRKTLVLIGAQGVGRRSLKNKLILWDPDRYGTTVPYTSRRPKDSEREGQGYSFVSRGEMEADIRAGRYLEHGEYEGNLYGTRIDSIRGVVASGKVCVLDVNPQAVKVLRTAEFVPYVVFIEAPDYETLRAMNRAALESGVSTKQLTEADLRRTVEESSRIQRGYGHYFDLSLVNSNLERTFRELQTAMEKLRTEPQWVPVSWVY
Description: pull-down; GST-SH3GK proteins on glutathione agarose, incubated with crude brain synaptosome preparations; western blot with αGABAAR α1 and αGST; bead control; only the target purified.

The target in test [3] is GST-PSD-95-SH3GK (UniProt P31016). Described as above.
Test [4] deals with pHluorin-tagged GABAAR α1 (UniProt P62813). As to the kind of experiment: co-IP; pHluorin-tagged GABAA receptor subunit and FLAG-MPP2 co-expressed in CHL V79 cells; precipitated with Ms αGFP or normal Ms-IgG; western blot with αFLAG-HRP and αGFP.
In test [5] the target is pHluorin-tagged GABAAR α2 (UniProt P23576). The description is as above.
The target of test [6] is pHluorin-tagged GABAAR β3 (UniProt P63079). The description is as above.
The target of test [7] is EGFP-tagged Pip5k1c (UniProt O60331). Description: co-IP; co-expression in HEK293T cells; lysis in 50 mM Tris pH 7.4, 100 mM NaCl, 1 mM EDTA, 1% Triton-X or 0.1% NP-40; precipitated with αGFP or normal mouse IgG and protein-G-agarose, 4°C; western blot.

Results are given in words; binding and its absence hold for the method and conditions named. In cells and extracts the contact can be indirect. Some results given as binding are weak or reduced against the parent protein; the word gives no strength. For some of these results: Sequences can lack the tags named with a protein.

As to HA-Gnao1 (from UniProt P59215-1 1-354), the binding result in test [1] is recorded as “binds”.
For “FLAG-tagged Ppp3ca (from UniProt P63329-1 1-521) (enzyme)”, the binding entry in test [1] was “binds”.
In the case of “GABAAR α1 (Gamma-aminobutyric acid receptor subunit alpha-1), endogenous (from UniProt P62813 28-455)”, the binding result in test [2] is on record as “binds”; in test [3], “no binding”.

B1: FLAG-tagged Farp1 (protein, UniProt F1LYQ8 1-1049)
chain: MGEIEQKPTPASRLGAPENSGISTLERGQKPPPTPSGKLMTVKIQMLDDTQEAFEVPQRAPGKVLFDAVCNHLNLVEGDYFGLEFPDHRKIVVWLDLLKPIVKQIRRPKHVLVKFVVKFFPPDHTQLQEELTRYLFALQVKQDLAQGRLTCNDTSAALLISHIVQSEIGDFDEALDREHLAKNKYVPQQDALEDKIVEFHHSHIGQTPAESDFQLLEVARRLEMYGIRLHPAKDREGTKINLAVANTGILVFQGFTKINAFNWAKVRKLSFKRKRFLIKLRPDVNSSYQDTLEFLMAGRDFCKSFWKICVEHHAFFRLFEEPKPKPKPVLFSRGSSFRFSGRTQKQVLDYVKEGGHKKVQFERKHSKIHSTRSLVSQPTAPNSEVPKQSPQSASLTFGEGTESPSAQSCQQAKETKVCTLEPGPRQSPALSKSPSGSKAADGTAAAAPPEEEDEEEGGKDGIRPSNPQPPQPSTGSLTGSPHLSELSINSQGGAAPANVTLSPNLSPDNKQASPLISPLLNDQACPRTDDEEEGRRKRFPTDKAYYIAKEVSTTERTYLKDLEVIASWFQSTVSKEDSMPEALKSLIFPNFEPLHKFHTNFLKEIEQRLALWEGRSNAHIRGDYQRIGDVMLKNIQGMKHLAAHLWKHSEALEALETSIKGSRRLEHFCRDFELQKVCYLPLNTFLLRPLHRLMHYKQVLERLCKHHPPNHADFRDCRAALAEITEMVAQLHGTMIKMENFQKLHELKKDLIGIDNLVIPGREFIRLGSLSKLSGKGLQQRMFFLFNDVLLYTSRGLTASNQFKVHGQLPLYGMTIEESEEEWGVPHCLTLRGQRQSIIVAASSRSEMEKWLEDIQMAIDLAEKSNGPTPELLASSPPDNKSPDEATAADQESEDDLSASRTSLERQAPHRGNTMVHVCWHRSTSVSMVDFSIAVENQLSGNLLRKFKNSNGWQKLWVVFTNFCLFFYKSHQDSHPLASLPLLGYSLTIPSESENIHKDYVFKLHFKSHVYYFRAESEYTFERWMEVIRSATSSASRAHSLSHKESHLY
For the molecule B1, the binding entry in test [1] was “binds”.

B2: FLAG-MPP2 (full-length, in CHL V79 cells) (protein, UniProt Q9WV34-1 1-552)
chain: T1 sequence
On to B2, for which the binding entry in test [4], in test [5] and in test [6] was “binds” each time.

B3: FLAG-MPP2 (in HEK293T cells) (protein, UniProt Q9WV34-1 1-552)
chain: T1 sequence
As for B3, the binding result in test [7] is given as “binds”.

B4: FLAG-tagged Arhgef2 (protein, UniProt Q5FVC2 1-985)
chain: MSRIESLTRARIDRSKEQATKTREKEKMKEAKDARYTNGHLFTTISVSGMTMCYACNKSITAKEALICPTCNVTIHNRCKDTLANCTKVKQKQQKAALLRNNTALQSVSLRSKTTTRERPTSAIYPSDSFRQSLLGSRRGLSSLSLAKSVSTTNIAGHFNDESPLGLRQILSQSTDSLNMRNRTLSVESLIDEGVEVFYNELMSDFEMDEKDFEADSWSLAVDSSFLQQHKKEVMKKQDVIYELIQTELHHVRTLKIMTRLFRTGMLEELQMEPEVVQGLFPCVDELSDIHTRFLSQLLERRRQALCPGSTRNFVIHRLGDLLISQFSGSNAEQMRKTYSEFCSRHTKALKLYKELYARDKRFQQFIRKMTRSAVLKRHGVQECILLVTQRITKYPVLINRILQNSHGIEEEYQDLAAALGLVKELLSNVDQDVHELEKEARLQEIYNRMDPRAQTPVPGKGPFGRDELLRRKLIHDGCLLWKTATGRFKDVLLLLMTDVLVFLQEKDQKYIFTSLDKPSVVSLQNLIVRDIANQAKGMFLISSGPPEMYEVHAASRDDRTTWIRVIQQSVRLCPSREDFPLIETEDKAYLRRIKTKLQQKNQALVELLQMNVELFAEMVHFQALKAGFIGMPPPTLPRGLFRLESFESLRGERLLKDALREVEGLKDLLLGPCVDLPLTAREPALPVEADSGSCPGVTANGEARTFNGSIELCRADSDSSQKDRNGNQLRSPQEEALQPLVNLYGLLQGLQAVVVQQERLMEALFPEGPERWEKLSRANSRDGEAGRAAVASVTPEKQATELALLQRQHSLLQEELRRCQRLGEERATEAGSLEARLRESEQARALLEREAEEIRRQLAALGQNEPLPAEAPWARRPLDPRRRSLPAGDALYLSFNPPQPSRGHDRLDLPVTVRSLHRPFDDREAQELGSPEDRLQDSSDPDTCSEEEVSSRLSPPHSPRDFTRMQDIPEETESRDGEPTASES
B4: in test [1], the binding entry is “binds”.
